In PMC8490721:
Results are given in words; binding and its absence hold for the method and conditions named. In cells and extracts the contact can be indirect. Some entries that bind do so weakly or less than the wild type.

Sequences of proteins named here, by UniProt entry; tags and fusion partners are left off.
UniProt Q13177: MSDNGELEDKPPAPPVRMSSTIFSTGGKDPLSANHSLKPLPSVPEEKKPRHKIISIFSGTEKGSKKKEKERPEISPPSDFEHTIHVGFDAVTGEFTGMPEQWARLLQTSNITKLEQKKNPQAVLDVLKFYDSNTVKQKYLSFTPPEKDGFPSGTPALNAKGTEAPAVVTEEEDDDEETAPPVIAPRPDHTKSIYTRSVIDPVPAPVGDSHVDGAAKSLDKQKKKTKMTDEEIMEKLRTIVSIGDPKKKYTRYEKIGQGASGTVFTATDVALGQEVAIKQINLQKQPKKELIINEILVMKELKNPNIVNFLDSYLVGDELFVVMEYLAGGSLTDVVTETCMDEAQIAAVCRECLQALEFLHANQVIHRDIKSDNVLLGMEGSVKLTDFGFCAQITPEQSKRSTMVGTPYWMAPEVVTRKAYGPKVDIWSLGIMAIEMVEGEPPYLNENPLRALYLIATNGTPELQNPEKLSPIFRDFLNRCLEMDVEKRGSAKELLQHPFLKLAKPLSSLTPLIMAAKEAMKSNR
UniProt P48431: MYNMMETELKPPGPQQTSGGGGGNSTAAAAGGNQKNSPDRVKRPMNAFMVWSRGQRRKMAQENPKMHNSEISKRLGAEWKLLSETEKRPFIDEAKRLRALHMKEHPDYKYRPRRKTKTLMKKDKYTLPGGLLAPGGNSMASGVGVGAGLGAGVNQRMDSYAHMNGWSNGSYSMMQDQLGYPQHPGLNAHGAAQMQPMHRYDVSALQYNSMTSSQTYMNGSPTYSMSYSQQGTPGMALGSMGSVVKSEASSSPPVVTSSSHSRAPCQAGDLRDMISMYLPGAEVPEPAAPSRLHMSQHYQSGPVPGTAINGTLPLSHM

Target: P21 (RAC1) activated kinase 2 (human (endogenous in CaOV3 and SKOV3)) (UniProt Q13177)
Assay: co-IP; lysates (RIPA buffer with protease inhibitors) of untransfected and transfected CaOV3 and SKOV3 cells incubated with PAK2 antibody, SOX2 antibody or control IgG at 4°C overnight, Protein A/G PLUS-Agarose beads 2 h at 4°C, Western blot; also in cells overexpressing lncRNA RP11-499E18.1 (interaction markedly reduced against the NC group)

SRY-box transcription factor 2 (from UniProt P48431 1-317)
binding: binds
